No constants are given. Whether binding was seen depends on the method and setting. Each block holds one binder with its values, some of them ahead of it.
Tests used:
[1] = biological target: Gal4 DNA binding domain alone; test: two-hybrid; mammalian two-hybrid in cos-7 cells: Gal4 DBD fusion and VP16 fusion co-transfected with pFR-luc and pCMV-lacZ; reporter alone set to 1
[2] = biological target: Gal4 DNA binding domain alone; test: two-hybrid; mammalian two-hybrid in HER911 cells: Gal4 DBD fusion and VP16 fusion co-transfected with the GAL4-based luciferase reporter pFR-luc and pCMV-lacZ; luciferase normalised to beta-galactosidase; reporter alone set to 1

- binding [1]: no binding
- binding [2]: no binding
B1: CRY1-VP16 (protein, UniProt P97784 1-606)
chain: MGVNAVHWFRKGLRLHDNPALKECIQGADTIRCVYILDPWFAGSSNVGINRWRFLLQCLEDLDANLRKLNSRLFVIRGQPADVFPRLFKEWNITKLSIEYDSEPFGKERDAAIKKLATEAGVEVIVRISHTLYDLDKIIELNGGQPPLTYKRFQTLVSKMEPLEMPADTITSDVIGKCMTPLSDDHDEKYGVPSLEELGFDTDGLSSAVWPGGETEALTRLERHLERKAWVANFERPRMNANSLLASPTGLSPYLRFGCLSCRLFYFKLTDLYKKVKKNSSPPLSLYGQLLWREFFYTAATNNPRFDKMEGNPICVQIPWDKNPEALAKWAEGRTGFPWIDAIMTQLRQEGWIHHLARHAVACFLTRGDLWISWEEGMKVFEELLLDADWSINAGSWMWLSCSSFFQQFFHCYCPVGFGRRTDPNGDYIRRYLPVLRGFPAKYIYDPWNAPEGIQKVAKCLIGVNYPKPMVNHAEASRLNIERMKQIYQQLSRYRGLGLLASVPSNSNGNGGLMGYAPGENVPSCSSSGNGGLMGYAPGENVPSCSGGNCSQGSGILHYAHGDSQQTHSLKQGRSSAGTGLSSGKRPSQEEDAQSVGPKVQRQSSN

- binding [1]: no binding
- binding [2]: no binding
B2: CRY2-VP16 (protein, UniProt Q9R194 1-592)
chain: MAAAAVVAATVPAQSMGADGASSVHWFRKGLRLHDNPALLAAVRGARCVRCVYILDPWFAASSSVGINRWRFLLQSLEDLDTSLRKLNSRLFVVRGQPADVFPRLFKEWGVTRLTFEYDSEPFGKERDAAIMKMAKEAGVEVVTENSHTLYDLDRIIELNGQKPPLTYKRFQALISRMELPKKPAVAVSSQQMESCRAEIQENHDDTYGVPSLEELGFPTEGLGPAVWQGGETEALARLDKHLERKAWVANYERPRMNANSLLASPTGLSPYLRFGCLSCRLFYYRLWDLYKKVKRNSTPPLSLFGQLLWREFFYTAATNNPRFDRMEGNPICIQIPWDRNPEALAKWAEGKTGFPWIDAIMTQLRQEGWIHHLARHAVACFLTRGDLWVSWESGVRVFDELLLDADFSVNAGSWMWLSCSAFFQQFFHCYCPVGFGRRTDPSGDYIRRYLPKLKGFPSRYIYEPWNAPESVQKAAKCIIGVDYPRPIVNHAETSRLNIERMKQIYQQLSRYRGLCLLASVPSCVEDLSHPVAEPGSSQAGSISNTGPRALSSGPASPKRKLEAAEEPPGEELTKRARVTEMPTQEPASKDS

— PMC2383916
